# The supplement of paper PMC10032668
# By UniProt entry, the sequences of proteins in these tests, tags left out.
# ATP6V0D1, P61421, UniProt P61421, whole entry: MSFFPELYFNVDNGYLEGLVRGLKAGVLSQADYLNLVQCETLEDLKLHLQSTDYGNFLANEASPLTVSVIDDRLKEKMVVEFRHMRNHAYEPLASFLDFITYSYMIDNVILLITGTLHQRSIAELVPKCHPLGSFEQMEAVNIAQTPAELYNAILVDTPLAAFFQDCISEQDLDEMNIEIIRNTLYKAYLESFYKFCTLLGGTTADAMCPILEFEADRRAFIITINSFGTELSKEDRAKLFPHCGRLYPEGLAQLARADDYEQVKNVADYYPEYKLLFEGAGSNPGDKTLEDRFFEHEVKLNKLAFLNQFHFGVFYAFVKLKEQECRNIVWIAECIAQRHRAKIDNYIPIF
# RGPD5, Q99666, UniProt Q99666, whole entry: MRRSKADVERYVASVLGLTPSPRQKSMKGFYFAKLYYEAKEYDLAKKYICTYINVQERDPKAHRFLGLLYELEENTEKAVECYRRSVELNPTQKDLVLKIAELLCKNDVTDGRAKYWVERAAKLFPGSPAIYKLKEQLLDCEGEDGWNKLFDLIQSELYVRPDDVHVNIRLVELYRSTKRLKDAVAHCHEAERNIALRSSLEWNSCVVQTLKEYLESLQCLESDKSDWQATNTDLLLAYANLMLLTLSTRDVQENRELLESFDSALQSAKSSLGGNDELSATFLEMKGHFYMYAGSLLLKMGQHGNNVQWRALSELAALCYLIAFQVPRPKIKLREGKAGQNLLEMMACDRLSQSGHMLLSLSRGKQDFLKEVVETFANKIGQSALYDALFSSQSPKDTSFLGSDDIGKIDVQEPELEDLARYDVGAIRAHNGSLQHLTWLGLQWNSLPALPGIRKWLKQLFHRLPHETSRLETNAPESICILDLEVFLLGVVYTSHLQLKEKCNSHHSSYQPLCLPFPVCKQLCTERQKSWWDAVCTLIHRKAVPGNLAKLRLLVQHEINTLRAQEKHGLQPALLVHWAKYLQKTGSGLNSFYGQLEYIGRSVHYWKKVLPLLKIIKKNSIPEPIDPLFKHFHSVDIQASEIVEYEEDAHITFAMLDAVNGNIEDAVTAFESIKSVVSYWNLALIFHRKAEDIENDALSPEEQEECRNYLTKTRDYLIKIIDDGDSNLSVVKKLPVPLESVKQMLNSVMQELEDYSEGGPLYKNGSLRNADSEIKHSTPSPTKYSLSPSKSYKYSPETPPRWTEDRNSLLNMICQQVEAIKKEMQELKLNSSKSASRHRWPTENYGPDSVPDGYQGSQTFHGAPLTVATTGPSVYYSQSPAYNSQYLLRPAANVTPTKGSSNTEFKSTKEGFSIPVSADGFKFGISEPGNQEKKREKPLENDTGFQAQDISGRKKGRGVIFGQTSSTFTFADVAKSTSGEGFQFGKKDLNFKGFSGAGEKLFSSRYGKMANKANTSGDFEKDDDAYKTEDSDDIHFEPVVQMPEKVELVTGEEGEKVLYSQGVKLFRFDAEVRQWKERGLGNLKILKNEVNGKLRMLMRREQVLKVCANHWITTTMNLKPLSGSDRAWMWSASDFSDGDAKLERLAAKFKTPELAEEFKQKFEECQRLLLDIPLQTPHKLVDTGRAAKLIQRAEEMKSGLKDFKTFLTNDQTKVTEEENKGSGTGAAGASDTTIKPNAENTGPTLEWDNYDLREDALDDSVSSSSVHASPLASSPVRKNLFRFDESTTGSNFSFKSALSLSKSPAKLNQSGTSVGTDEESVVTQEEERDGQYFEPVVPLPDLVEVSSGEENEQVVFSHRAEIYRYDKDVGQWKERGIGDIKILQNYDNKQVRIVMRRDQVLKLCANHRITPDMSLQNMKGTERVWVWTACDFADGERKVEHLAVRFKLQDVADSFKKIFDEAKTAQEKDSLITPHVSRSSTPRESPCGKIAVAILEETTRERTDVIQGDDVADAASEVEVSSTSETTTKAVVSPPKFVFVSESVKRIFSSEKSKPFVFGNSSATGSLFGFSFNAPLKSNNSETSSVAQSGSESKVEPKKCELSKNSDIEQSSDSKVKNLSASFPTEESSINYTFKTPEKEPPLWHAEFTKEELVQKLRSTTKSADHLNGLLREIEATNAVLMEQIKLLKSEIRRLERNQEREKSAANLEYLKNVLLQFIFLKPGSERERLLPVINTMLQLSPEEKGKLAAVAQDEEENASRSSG
# APEX1, P27695, UniProt P27695, whole entry: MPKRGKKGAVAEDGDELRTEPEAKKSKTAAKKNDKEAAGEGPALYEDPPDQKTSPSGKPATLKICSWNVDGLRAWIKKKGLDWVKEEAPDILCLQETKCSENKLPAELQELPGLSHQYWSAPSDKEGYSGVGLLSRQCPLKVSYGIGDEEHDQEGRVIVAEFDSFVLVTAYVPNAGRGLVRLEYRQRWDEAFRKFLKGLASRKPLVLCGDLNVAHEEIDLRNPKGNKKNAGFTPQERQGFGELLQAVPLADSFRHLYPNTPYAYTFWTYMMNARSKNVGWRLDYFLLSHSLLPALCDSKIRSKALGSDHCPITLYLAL
# SMARCC1, Q92922, UniProt Q92922, whole entry: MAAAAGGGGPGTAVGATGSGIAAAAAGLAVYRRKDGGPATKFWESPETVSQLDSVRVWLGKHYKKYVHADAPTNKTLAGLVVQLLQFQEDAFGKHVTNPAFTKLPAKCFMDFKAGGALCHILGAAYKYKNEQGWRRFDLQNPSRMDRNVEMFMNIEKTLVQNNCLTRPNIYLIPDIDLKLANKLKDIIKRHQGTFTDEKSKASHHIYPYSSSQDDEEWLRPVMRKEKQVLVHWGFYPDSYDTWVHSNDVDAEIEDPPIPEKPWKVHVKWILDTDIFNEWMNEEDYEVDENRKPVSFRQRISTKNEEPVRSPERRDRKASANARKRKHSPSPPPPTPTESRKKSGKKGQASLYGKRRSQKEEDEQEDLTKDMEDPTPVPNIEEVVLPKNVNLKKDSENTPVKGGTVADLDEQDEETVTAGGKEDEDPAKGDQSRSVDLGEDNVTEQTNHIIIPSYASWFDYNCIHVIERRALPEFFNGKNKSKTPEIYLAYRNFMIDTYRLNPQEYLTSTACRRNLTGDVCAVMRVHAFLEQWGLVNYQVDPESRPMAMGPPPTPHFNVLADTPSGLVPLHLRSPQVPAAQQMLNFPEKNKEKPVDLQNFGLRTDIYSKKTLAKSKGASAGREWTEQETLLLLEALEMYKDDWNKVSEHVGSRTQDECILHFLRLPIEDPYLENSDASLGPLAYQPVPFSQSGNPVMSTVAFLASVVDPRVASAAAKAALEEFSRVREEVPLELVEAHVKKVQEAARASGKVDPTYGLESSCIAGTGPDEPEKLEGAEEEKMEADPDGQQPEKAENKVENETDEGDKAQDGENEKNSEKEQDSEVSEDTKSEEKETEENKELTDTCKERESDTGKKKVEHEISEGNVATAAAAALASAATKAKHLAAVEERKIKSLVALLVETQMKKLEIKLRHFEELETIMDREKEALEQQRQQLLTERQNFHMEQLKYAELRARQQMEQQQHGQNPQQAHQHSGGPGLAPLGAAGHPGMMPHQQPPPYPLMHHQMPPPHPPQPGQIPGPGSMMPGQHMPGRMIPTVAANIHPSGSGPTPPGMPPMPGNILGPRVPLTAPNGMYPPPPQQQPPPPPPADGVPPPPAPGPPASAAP
# The list shows a part of the results. The list holds hits alone, and they repeat only in part.
# Key:
# Assay in all cases: PRISMA enrichment of interactor (LFQ) in peptide spot vs all other peptide spots (log2 fold change); higher = stronger / more specific binding of the interactor to the peptide
# AP2A1, O95782 = target: AP2A1, O95782
# Protocol: (§1)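 PRISMA: 15-aa overlapping tiles (offset 8 aa) of 60 microproteins, plus SOS1/GLUT1 control peptides, were spot-synthesized on cellulose membranes in triplicate. Membranes were incubated with benzonase-treated HEK293T lysate, and bound proteins were identified by LC-MS/MS with LFQ. Enrichment is the log2 fold change of each protein in one spot versus all other spots. Only interactors passing the significance cutoff are listed.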
# AP2B1, P63010 = target: AP2B1, P63010
# Protocol: as §1
# ASS1, P00966 = target: ASS1, P00966
# Protocol: as §1
# ATP6V0D1, P61421 = target: ATP6V0D1, P61421
# Protocol: as §1
# C19orf53, Q9UNZ5 = target: C19orf53, Q9UNZ5
# Protocol: as §1
# CDC42EP1, Q00587 = target: CDC42EP1, Q00587
# Protocol: as §1
# CHTOP, Q9Y3Y2 = target: CHTOP, Q9Y3Y2
# Protocol: as §1
# DHX40, Q8IX18 = target: DHX40, Q8IX18
# Protocol: as §1
# DIS3, Q9Y2L1 = target: DIS3, Q9Y2L1
# Protocol: as §1
# ECHS1, P30084 = target: ECHS1, P30084
# Protocol: as §1
# MRPL27, Q9P0M9 = target: MRPL27, Q9P0M9
# Protocol: as §1
# MRRF, Q96E11 = target: MRRF, Q96E11
# Protocol: as §1
# NECAP2, Q9NVZ3 = target: NECAP2, Q9NVZ3
# Protocol: as §1
# NME4, O00746 = target: NME4, O00746
# Protocol: as §1
# NUDT16L1, Q9BRJ7 = target: NUDT16L1, Q9BRJ7
# Protocol: as §1
# RGPD5, Q99666 = target: RGPD5, Q99666
# Protocol: as §1
# RRS1, Q15050 = target: RRS1, Q15050
# Protocol: as §1
# SFPQ, P23246 = target: SFPQ, P23246
# Protocol: as §1
# SNX27, Q96L92 = target: SNX27, Q96L92
# Protocol: as §1
# YTHDC2, Q9H6S0 = target: YTHDC2, Q9H6S0
# Protocol: as §1
# ANXA7, P20073 = target: ANXA7, P20073
# Protocol: as §1
# APEX1, P27695 = target: APEX1, P27695
# Protocol: as §1
# ARFGAP1, Q8N6T3 = target: ARFGAP1, Q8N6T3
# Protocol: as §1
# BANF1, O75531 = target: BANF1, O75531
# Protocol: as §1
# BPTF, Q12830 = target: BPTF, Q12830
# Protocol: as §1
# CHP1, Q99653 = target: CHP1, Q99653
# Protocol: as §1
# CKAP2, Q8WWK9 = target: CKAP2, Q8WWK9
# Protocol: as §1
# CTPS1, P17812 = target: CTPS1, P17812
# Protocol: as §1
# EARS2, Q5JPH6 = target: EARS2, Q5JPH6
# Protocol: as §1
# FOCAD, Q5VW36 = target: FOCAD, Q5VW36
# Protocol: as §1
# GRB10, Q13322 = target: GRB10, Q13322
# Protocol: as §1
# HOXB9, P17482 = target: HOXB9, P17482
# Protocol: as §1
# IGF2BP2, Q9Y6M1 = target: IGF2BP2, Q9Y6M1
# Protocol: as §1
# MCMBP, Q9BTE3 = target: MCMBP, Q9BTE3
# Protocol: as §1
# P4HB, P07237 = target: P4HB, P07237
# Protocol: as §1
# SEC23A, Q15436 = target: SEC23A, Q15436
# Protocol: as §1
# SMARCC1, Q92922 = target: SMARCC1, Q92922
# Protocol: as §1
# SRRT, Q9BXP5 = target: SRRT, Q9BXP5
# Protocol: as §1
# TBCD, Q9BTW9 = target: TBCD, Q9BTW9
# Protocol: as §1
# WTAP, Q15007 = target: WTAP, Q15007
# Protocol: as §1
# ZC3H11A, O75152 = target: ZC3H11A, O75152
# Protocol: as §1
# ZNF724, A8MTY0 = target: ZNF724, A8MTY0
# Protocol: as §1
binder,measurement,setting,value
VPVRNSSTGLSSFWE [RP11-432J24.5_2],PRISMA enrichment of interactor (log2),"AP2A1, O95782",5.07
same,PRISMA enrichment of interactor (log2),"AP2B1, P63010",4.97
same,PRISMA enrichment of interactor (log2),"ASS1, P00966",4.13
same,PRISMA enrichment of interactor (log2),"ATP6V0D1, P61421",7.17
same,PRISMA enrichment of interactor (log2),"C19orf53, Q9UNZ5",5.39
same,PRISMA enrichment of interactor (log2),"CDC42EP1, Q00587",5.26
same,PRISMA enrichment of interactor (log2),"CHTOP, Q9Y3Y2",5.37
same,PRISMA enrichment of interactor (log2),"DHX40, Q8IX18",4
same,PRISMA enrichment of interactor (log2),"DIS3, Q9Y2L1",5.02
same,PRISMA enrichment of interactor (log2),"ECHS1, P30084",5.26
same,PRISMA enrichment of interactor (log2),"MRPL27, Q9P0M9",8.3
same,PRISMA enrichment of interactor (log2),"MRRF, Q96E11",5.3
same,PRISMA enrichment of interactor (log2),"NECAP2, Q9NVZ3",4.05
same,PRISMA enrichment of interactor (log2),"NME4, O00746",4.61
same,PRISMA enrichment of interactor (log2),"NUDT16L1, Q9BRJ7",4.64
same,PRISMA enrichment of interactor (log2),"RGPD5, Q99666",6.92
same,PRISMA enrichment of interactor (log2),"RRS1, Q15050",5.01
same,PRISMA enrichment of interactor (log2),"SFPQ, P23246",5.18
same,PRISMA enrichment of interactor (log2),"SNX27, Q96L92",5.86
same,PRISMA enrichment of interactor (log2),"YTHDC2, Q9H6S0",4.98
DSVRDRLPQDHSAPA [DANCR],PRISMA enrichment of interactor (log2),"ANXA7, P20073",4.02
same,PRISMA enrichment of interactor (log2),"APEX1, P27695",3.79
same,PRISMA enrichment of interactor (log2),"ARFGAP1, Q8N6T3",7.69
same,PRISMA enrichment of interactor (log2),"BANF1, O75531",5.19
same,PRISMA enrichment of interactor (log2),"BPTF, Q12830",6.17
same,PRISMA enrichment of interactor (log2),"CHP1, Q99653",3.7
same,PRISMA enrichment of interactor (log2),"CKAP2, Q8WWK9",13.4
same,PRISMA enrichment of interactor (log2),"CTPS1, P17812",4.83
same,PRISMA enrichment of interactor (log2),"EARS2, Q5JPH6",3.87
same,PRISMA enrichment of interactor (log2),"FOCAD, Q5VW36",4.73
same,PRISMA enrichment of interactor (log2),"GRB10, Q13322",5.11
same,PRISMA enrichment of interactor (log2),"HOXB9, P17482",5.64
same,PRISMA enrichment of interactor (log2),"IGF2BP2, Q9Y6M1",5.05
same,PRISMA enrichment of interactor (log2),"MCMBP, Q9BTE3",3.86
same,PRISMA enrichment of interactor (log2),"P4HB, P07237",5.28
same,PRISMA enrichment of interactor (log2),"SEC23A, Q15436",6.27
same,PRISMA enrichment of interactor (log2),"SMARCC1, Q92922",3.83
same,PRISMA enrichment of interactor (log2),"SRRT, Q9BXP5",6.63
same,PRISMA enrichment of interactor (log2),"TBCD, Q9BTW9",5.65
same,PRISMA enrichment of interactor (log2),"WTAP, Q15007",3.51
same,PRISMA enrichment of interactor (log2),"ZC3H11A, O75152",9.35
same,PRISMA enrichment of interactor (log2),"ZNF724, A8MTY0",6.82

# Part of the list above in a different format:
binder | measurement | setting | value
DSVRDRLPQDHSAPA [DANCR] | PRISMA enrichment of interactor (log2) | P4HB, P07237 | 5.28
same | PRISMA enrichment of interactor (log2) | SEC23A, Q15436 | 6.27
